{"source": "patent EP4671280A1", "note": "Results are given in words; binding and its absence hold for the method and conditions named. Some results given as binding are weak or reduced against the parent protein; the word gives no strength.", "data": [{"target": "cynomolgus monkey Nectin-4 protein (KACTUS, Cat. No. NEC-CM104) (cynomolgus monkey)", "test": "ELISA screening of hybridoma subclones", "values": [{"binder": "Murine antibody 23-H4F3 (antibody, V domains shown) VH: QVQLQQSGPELVKPGASVRISCKASGYTFTSYYIHWVKQRPGQGLEWIGWIYPGNVNTKYNEKFKGKATLTADKSSSTAYMQLISLTSEDSAVYFCARGVYYFDFWGQGTTLTVSS VL: SIVMTQTPKFLLVSAGDRVTLTCKASQSVSNDVAWFQQKPGQSPKLLIYYALNRYTGVPDRFTGSGYGTDFTFTISTVQAEDLAVYFCQQDYSSPYTFGGGTKLEIK", "binding": "binds"}, {"binder": "Murine antibody 6-B9B6 (antibody, V domains shown) VH: EVHLVESGGGLVQPGGSLKLSCAASGFTFSSYGMSWVRQTPDKRLELVATINNIGGSTFPPDSVKGRFTVSRDNAKNTLYLQMSSLKSEDTAMYYCARAYDYVPFAYWGQGTLVTVSA VL: DIQMTQSSSYLSVSLGGRVTITCKASDHINNWLAWYQQKPGNAPRLLISGATSLETGVPSRFSGSGSGKDYALSIASLQTEDVATYYCQQYWSTPFTFGSGTKLEIK", "binding": "binds"}, {"binder": "Murine antibody 32-A12C7 (antibody, V domains shown) VH: QVQLQQPGAELVMPGASVKMSCKASGYTFTDYWMHWVKQRPGQGLEWIGAIDTSDSYTSYNQKFKGKATLTVDESSSTAYMQLSSLTSEDSAVYYCARWGSTMITWGYGMDNWGQGTSVTVSS VL: DIQMTQTTSSLSASLGDRVTISCRASQDINNYLNWYQQKPDGTVKLLIYYTSRLHSGVPSRFSGSGSGTDYSLTISNLEQEDIATYFCQQGNTLPWTFGGGTKLEIK", "binding": "binds"}]}]}
